{
  "source": "paper PMC4971072",
  "about": "“Chemically Homogenous Compounds with Antagonistic Properties at All α1-Adrenoceptor Subtypes but not β1-Adrenoceptor Attenuate Adrenaline-Induced Arrhythmia in Rats” (Frontiers in Pharmacology, 2016)",
  "key": {"α1-adrenoceptor": {"molecular_target": "α1-adrenoceptor", "assay": "α1-adrenoceptor radioligand binding assay ([3H]-prazosin, rat cerebral cortex)", "conditions": "read-out: Adrenergic receptors Ki α1", "description": "The α1- and β1-adrenoceptor radioligand binding assay was performed on rat cerebral cortex. […] The cell pellet was resuspended in the Tris–HCl buffer and centrifuged again. Radioligand binding assays were performed in plates (MultiScreen/Millipore). […] The incubation was terminated by rapid filtration through glass fiber filters (Whatman GF/C) using a vacuum manifold (Millipore). The filters were then washed twice with the assay buffer and placed in scintillation vials with a liquid scintillation cocktail. […] All the assays were made in duplicate and the inhibitory constants (Ki) were estimated.\nLO–labeled ligand concentration, KD–dissociation constant of labeled ligand"}, "[1]": {"test_system": "adrenaline-induced arrhythmia in rats", "assay": "Therapeutic antiarrhythmic activity in adrenaline-induced arrhythmia", "type": "in vivo, rat", "conditions": "i.v. at ED84 at the peak of adrenaline-induced arrhythmia (20 μg/kg)", "description": "The experiment was performed according to the method described by Szekeres and Papp ([1968]). The arrhythmia was evoked by the intravenous administration of adrenaline (20 μg/kg) into the caudal vein in anesthetized rats (thiopental, 75 mg/kg). […] The range of doses was 0.325−0.504 mg/kg. The ECG was recorded constantly for 5 min as well as in the 10th and 15th min of the experiment. The criterion of antiarrhythmic activity was the reduction of premature ventricular contractions in comparison with the control group (Sapa et al., [2011])."}, "[2]": {"test_system": "lipid peroxidation in rat brain homogenate", "assay": "Lipid peroxidation in rat brain homogenate (TBARS), antioxidant effect", "type": "biochemical", "conditions": "10^−3 M", "description": "The rat brain homogenate containing 10 mg tissue/ml was prepared in 0.9% saline. The rates of membrane lipid peroxidation were measured by the formation of thiobarbituric acid reactive substances (TBARS). Rat brain homogenates (1 ml) were incubated at 37°C for 5 min with 10 μl of a tested compound or vehicle. Lipid peroxidation was initiated by the addition of 50 μl of 0.5 mM FeCl2 and 50 μl of 2.0 mM ascorbic acid. After 30 min of incubation, the reaction was stopped by adding 0.1 ml of 0.2% butylated hydroxytoluene (BHT). Thiobarbituric acid reagent was then added and the mixture was heated for 15 min in a boiling water bath."}},
  "note": "pKi: −log10 of the molar value. Where a name gives a salt, the structure may show the parent alone.",
  "data": [
    {"smiles": "COc1ccccc1N1CCN(CCCOc2cc(C)ccc2C)CC1", "note": "[HBK-17, 1N-[3-(2,5-dimethylphenoxy)propyl]-4N-(2-methoxyphenyl)piperazine hydrochloride]", "values": [
      {"measurement": "pKi", "setting": "α1-adrenoceptor", "result": 7.89},
      {"measurement": "therapeutic antiarrhythmic activity (premature ventricular contractions)", "setting": "[1]", "result": "restored normal heart rhythm"},
      {"measurement": "inhibition of lipid peroxidation (in words)", "setting": "[2]", "result": "inhibited lipid peroxidation"},
      {"measurement": "% reduction of absorbance (% antioxidant activity)", "setting": "[2]; TBARs at 532 nm", "result": 14.30, "unit": "%"},
      {"measurement": "Absorbance", "setting": "[2]; TBARs at 532 nm", "result": "0.773 ± 0.009"}
    ]}
  ]
}
